PubChem BioAssay AID504774 | Drosophila RNAi Screening Center | 2011
In all, the deposit lists about 23,000 reagents; below is an unselected part of those that have a named target and a result. 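Values are quantile-normalised luminescence on an arbitrary scale; higher means more cells surviving MMS.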 Not all columns of the deposit are shown.

- Test: 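Fly genes whose loss alters survival after alkylation damage to DNA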 (primary screen)
- Cells: Drosophila Kc167 cells
- Reagents: long dsRNA against Drosophila genes, about 0.25 µg dsRNA per well
- Timing: about 6 days: 3 days knock-down, then 3 days with or without MMS
- Challenge: methyl methanesulphonate 0.004% (w/v) for 3 days after knock-down
- Measurement: 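Viability in wells given MMS, read as ATP luminescence, normalised by quantiles plate by plate and averaged across replicates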
- Reading the numbers: mean viability with MMS and viability with MMS: higher = more surviving cells after MMS

CG30428 [SID104183833] — mean viability with MMS: 3.47e6; viability with MMS, replicate 1: 4.04e6
CG5805 [SID104195670] — mean viability with MMS: 3.71e6; viability with MMS, replicate 1: 4.14e6
Desat1 [SID104196460] — mean viability with MMS: 3.33e6; viability with MMS, replicate 1: 3.75e6
Pph13 [SID104180567] — mean viability with MMS: 3.37e6; viability with MMS, replicate 1: 3.76e6
Pph13 [SID104202519] — mean viability with MMS: 3.32e6; viability with MMS, replicate 1: 3.81e6
wac [SID104188141] — mean viability with MMS: 3.50e6; viability with MMS, replicate 1: 4.03e6
spen [SID104180631] — mean viability with MMS: 3.41e6; viability with MMS, replicate 1: 3.82e6
Ugt307A1 [SID104181930] — mean viability with MMS: 3.42e6; viability with MMS, replicate 1: 3.88e6
CG12688 (retired record) [SID104197669] — mean viability with MMS: 3.49e6; viability with MMS, replicate 1: 4.26e6
CG12688 (retired record) [SID104197670] — mean viability with MMS: 3.56e6; viability with MMS, replicate 1: 4.20e6
CG31525 [SID104191796] — mean viability with MMS: 3.40e6; viability with MMS, replicate 1: 3.84e6
Tob [SID104200086] — mean viability with MMS: 3.31e6; viability with MMS, replicate 1: 4.07e6
Mal-A1 [SID104187253] — mean viability with MMS: 3.57e6; viability with MMS, replicate 1: 3.97e6
upd1 [SID104200150] — mean viability with MMS: 3.55e6; viability with MMS, replicate 1: 4.00e6
Tbcb [SID104185859] — mean viability with MMS: 3.61e6; viability with MMS, replicate 1: 4.05e6
CG12773 [SID104198372] — mean viability with MMS: 3.35e6; viability with MMS, replicate 1: 3.78e6
CG33969 [SID104191569] — mean viability with MMS: 3.59e6; viability with MMS, replicate 1: 4.10e6
CG34425 [SID104192002] — mean viability with MMS: 3.77e6; viability with MMS, replicate 1: 3.95e6
CG34425 [SID104201819] — mean viability with MMS: 3.38e6; viability with MMS, replicate 1: 3.87e6
CG30280 [SID104201429] — mean viability with MMS: 3.48e6; viability with MMS, replicate 1: 3.95e6

The list goes on; the last 5 above are carried over.
CG12773 [SID104198372] — mean viability with MMS: 3.35e6; viability with MMS, replicate 1: 3.78e6
CG33969 [SID104191569] — mean viability with MMS: 3.59e6; viability with MMS, replicate 1: 4.10e6
CG34425 [SID104192002] — mean viability with MMS: 3.77e6; viability with MMS, replicate 1: 3.95e6
CG34425 [SID104201819] — mean viability with MMS: 3.38e6; viability with MMS, replicate 1: 3.87e6
CG30280 [SID104201429] — mean viability with MMS: 3.48e6; viability with MMS, replicate 1: 3.95e6
Tdrd3 [SID104189808] — mean viability with MMS: 3.64e6; viability with MMS, replicate 1: 4.22e6
Smyd5 [SID104195275] — mean viability with MMS: 3.48e6; viability with MMS, replicate 1: 4.17e6
CG13077 [SID104181973] — mean viability with MMS: 3.53e6; viability with MMS, replicate 1: 3.98e6
IscU [SID104196364] — mean viability with MMS: 3.05e6; viability with MMS, replicate 1: 3.65e6
ZAP3 [SID104197644] — mean viability with MMS: 3.44e6; viability with MMS, replicate 1: 4.00e6
ZAP3 [SID104197645] — mean viability with MMS: 3.70e6; viability with MMS, replicate 1: 4.16e6
ZAP3 [SID104198041] — mean viability with MMS: 3.43e6; viability with MMS, replicate 1: 3.92e6
Sbds [SID104190784] — mean viability with MMS: 3.62e6; viability with MMS, replicate 1: 4.10e6
CG3515 [SID104180401] — mean viability with MMS: 3.45e6; viability with MMS, replicate 1: 3.91e6
Cyp4ac3 [SID104183096] — mean viability with MMS: 3.72e6; viability with MMS, replicate 1: 4.25e6
CG3301 [SID104195263] — mean viability with MMS: 3.49e6; viability with MMS, replicate 1: 3.99e6
Sdhaf3 [SID104194812] — mean viability with MMS: 3.15e6; viability with MMS, replicate 1: 3.59e6
CG11019 (retired record) [SID104181909] — mean viability with MMS: 3.51e6; viability with MMS, replicate 1: 3.85e6
EloC [SID104187215] — mean viability with MMS: 3.56e6; viability with MMS, replicate 1: 4.11e6
CG32720 [SID104197321] — mean viability with MMS: 3.53e6; viability with MMS, replicate 1: 4.06e6
